These are yes or no findings as the source states them, for the method shown. In cells and extracts the contact can be indirect. Some binding calls cover weakened binding; strength is not graded here. For part of these data: Tags and fused reporters may be left off the sequences shown.
T1: Hsh155-TAP (yeast (s288c background)) (UniProt P49955)
T1 sequence: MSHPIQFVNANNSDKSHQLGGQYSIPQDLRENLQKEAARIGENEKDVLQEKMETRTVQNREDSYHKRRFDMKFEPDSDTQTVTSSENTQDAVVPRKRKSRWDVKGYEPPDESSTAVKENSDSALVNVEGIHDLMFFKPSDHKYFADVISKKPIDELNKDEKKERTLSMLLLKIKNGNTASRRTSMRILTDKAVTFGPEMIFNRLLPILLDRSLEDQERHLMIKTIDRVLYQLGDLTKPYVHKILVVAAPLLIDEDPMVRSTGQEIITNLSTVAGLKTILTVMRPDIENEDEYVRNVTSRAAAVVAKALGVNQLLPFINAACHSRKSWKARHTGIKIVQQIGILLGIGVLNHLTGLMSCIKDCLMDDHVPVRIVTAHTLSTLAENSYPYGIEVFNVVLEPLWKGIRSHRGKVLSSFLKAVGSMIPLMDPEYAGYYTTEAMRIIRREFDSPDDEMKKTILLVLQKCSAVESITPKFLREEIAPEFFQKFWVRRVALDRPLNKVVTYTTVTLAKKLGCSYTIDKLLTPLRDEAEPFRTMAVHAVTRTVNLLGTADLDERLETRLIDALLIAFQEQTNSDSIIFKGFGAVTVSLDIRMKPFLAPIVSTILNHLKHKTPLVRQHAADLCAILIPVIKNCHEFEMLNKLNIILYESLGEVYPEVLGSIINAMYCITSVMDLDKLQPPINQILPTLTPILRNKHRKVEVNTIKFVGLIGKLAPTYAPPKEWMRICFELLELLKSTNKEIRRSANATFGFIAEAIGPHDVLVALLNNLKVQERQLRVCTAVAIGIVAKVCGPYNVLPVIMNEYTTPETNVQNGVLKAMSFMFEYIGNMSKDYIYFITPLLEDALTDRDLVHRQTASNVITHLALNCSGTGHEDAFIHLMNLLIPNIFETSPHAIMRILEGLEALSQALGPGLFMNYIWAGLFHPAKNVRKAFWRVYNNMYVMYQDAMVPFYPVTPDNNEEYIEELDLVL

The chains behind the UniProt entries cited, without tags or fusion partners.
UniProt P25694: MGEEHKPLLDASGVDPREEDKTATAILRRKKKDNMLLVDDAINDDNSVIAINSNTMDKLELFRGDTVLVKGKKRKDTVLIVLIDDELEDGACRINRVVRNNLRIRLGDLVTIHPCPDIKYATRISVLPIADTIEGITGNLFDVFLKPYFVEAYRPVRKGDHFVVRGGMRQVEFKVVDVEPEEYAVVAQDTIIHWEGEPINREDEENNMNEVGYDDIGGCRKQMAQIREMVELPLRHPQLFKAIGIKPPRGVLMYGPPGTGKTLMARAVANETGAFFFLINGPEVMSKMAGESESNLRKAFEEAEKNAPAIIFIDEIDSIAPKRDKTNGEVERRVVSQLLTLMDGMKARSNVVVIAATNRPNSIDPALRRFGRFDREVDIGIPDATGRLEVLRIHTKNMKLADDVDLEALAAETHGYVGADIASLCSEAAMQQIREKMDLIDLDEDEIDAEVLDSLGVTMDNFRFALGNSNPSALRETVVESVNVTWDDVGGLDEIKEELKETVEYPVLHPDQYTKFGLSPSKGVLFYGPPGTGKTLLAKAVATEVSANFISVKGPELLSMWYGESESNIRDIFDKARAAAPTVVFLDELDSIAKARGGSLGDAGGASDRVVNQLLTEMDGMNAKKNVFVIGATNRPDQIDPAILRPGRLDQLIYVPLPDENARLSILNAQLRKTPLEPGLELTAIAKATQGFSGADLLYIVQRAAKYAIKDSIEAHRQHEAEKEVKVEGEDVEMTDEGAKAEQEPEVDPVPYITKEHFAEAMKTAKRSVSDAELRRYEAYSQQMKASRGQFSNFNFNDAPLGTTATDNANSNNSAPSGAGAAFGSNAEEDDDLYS

T2: TAP tagged Cus1 (yeast (s288c background)) (UniProt Q02554)
T2 sequence: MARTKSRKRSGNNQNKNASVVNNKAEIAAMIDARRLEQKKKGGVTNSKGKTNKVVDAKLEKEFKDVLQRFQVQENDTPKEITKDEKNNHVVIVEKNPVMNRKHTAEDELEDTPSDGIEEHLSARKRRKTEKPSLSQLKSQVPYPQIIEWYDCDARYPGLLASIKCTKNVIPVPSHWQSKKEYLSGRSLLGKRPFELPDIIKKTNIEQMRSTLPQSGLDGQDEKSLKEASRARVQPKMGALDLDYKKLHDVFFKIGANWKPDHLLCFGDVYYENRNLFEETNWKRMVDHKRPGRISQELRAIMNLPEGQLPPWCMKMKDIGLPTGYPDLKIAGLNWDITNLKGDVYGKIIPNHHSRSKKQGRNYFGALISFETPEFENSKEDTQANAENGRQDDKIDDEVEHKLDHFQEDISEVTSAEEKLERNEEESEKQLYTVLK

B1: Hsh155-GFP (protein, UniProt P49955 1-971)
chain: T1 sequence

Legend:
Assay in all cases: co-IP
[1] = target: T1, Hsh155-TAP (yeast (s288c background))
[2] = target: T2, TAP tagged Cus1 (yeast (s288c background))
[3] = target: Cdc48-TAP (yeast (s288c background)) (UniProt P25694)

Molecule | binding [1] | binding [2] | binding [3]
Cdc48-GFP (from UniProt P25694 1-835) | binds | – | –
B1 | – | binds | binds

— paper doi:10.1101/2020.06.16.152934
